PubChem BioAssay AID504834 (National Center for Advancing Translational Sciences (NCATS), 2011)
Out of some 320,000 compounds screened, about 22,000 (6.9%) were called active. The inconclusive results got no clear call from the source; some entries with a clear call stand among them for comparison. Calls follow the shape of the dose curve; as a rule, active = well fitted inhibition curve with a large enough effect; inconclusive = small, poorly fitted or top-dose-only effect, or another doubt; inactive = no such curve, though single readings can be large or run the other way. Where the call is inconclusive, the potency comes from a doubtful curve fit.
% is scaled to controls: 0 for no effect and ±100 for the full control effect; potency is read from the fitted curve at half-maximal effect.

Assay: Primary qHTS for delayed death inhibitors of the malarial parasite plastid, 96 hour incubation
Settings: P. falciparum luciferase reporter growth; series mostly up to 28.7 µM; activity change, negative = inhibition: at the top concentration
Outline: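 P. falciparum expressing integrated firefly luciferase grown in erythrocytes (2% hematocrit, 0.05% parasitemia final) with compounds for 96 hours at 37 C, 5% CO2. Growth inhibition read as loss of luminescence after adding luciferase detection reagent.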
In the case of `CN(C)c1cc[n+](CC(=O)Nc2ccc([N+](=O)[O-])cc2Cl)cc1`, the “activity change, negative = inhibition” value is reported as inactive: 49.8%.
For `COc1cc2c(cc1OC)-c1c(OC)c(OC)cc3c1[C@H](C2)[N+](C)(C)CC3`, the Potency was active: 0.37 µM.
For `CC[n+]1c(/C=C(\C)OC)sc2ccccc21`, the “activity change, negative = inhibition” value was inactive: -29%.
For `CC(=O)CSc1nnc(-c2ccc(S(=O)(=O)N3CCOCC3)cc2)n1C`, the Potency was inconclusive: 16.5 µM [inhibitor, single point].
With `CCOC(=O)Cn1c(S(=O)(=O)Cc2ccc(Cl)cc2)nc(-c2ccccc2)c1-c1ccccc1` the Potency was active: 10.4 µM.
In the case of `O=C(COC(=O)/C=C/c1ccc(C(F)(F)F)cc1)NC1CCCC1`, the Potency is reported as inconclusive: 18.5 µM [inhibitor, single point].
With `CCCC(=O)Nc1ccc(Cl)c(NC(=O)c2ccc(Br)o2)c1` the Potency was inconclusive: 9.28 µM [inhibitor, partial curve].
With `CN(C(=O)COC(=O)/C=C/c1cccc([N+](=O)[O-])c1)C1CCS(=O)(=O)C1` (stereo not drawn) the “activity change, negative = inhibition” value was inactive: -5.55%.
In the case of `CC1CCc2nc3ccccc3c(C(=O)OCC(=O)N3CCc4ccccc43)c2C1` (stereo not drawn), the Potency is reported as inconclusive: 4.65 µM [inhibitor, partial curve, poor fit].
In the case of `O=C(NN1CC(C(=O)OCc2ccc(Cl)cc2Cl)CC1=O)c1ccccc1` (stereo not drawn), the Potency is reported as inconclusive: 18.5 µM [inhibitor, single point].
In the case of `Cc1onc(-c2c(F)cccc2Cl)c1C(=O)NCc1ccccc1`, the Potency is reported as inconclusive: 11.7 µM [inhibitor, single point].
For `O=C(CN1C(=O)NC2(CCCCCC2)C1=O)c1ccccc1`, the Potency was inconclusive: 13.1 µM [inhibitor, partial curve, poor fit].
In the case of `Cc1c(/C(O)=C2\C(=O)C(=O)N(CCN(C)C)C2c2ccco2)cnn1-c1ccccc1` (stereo not drawn), the “activity change, negative = inhibition” value is reported as inactive: 243%.
For `COc1cccc(NC(=O)CCN2C(=O)c3ccc([N+](=O)[O-])cc3C2=O)c1`, the Potency was inconclusive: 3.29 µM [inhibitor, single point].
In the case of `O=C(Nc1ccc(C(=O)N2CCOCC2)cc1)Nc1cccc2ccccc12`, the Potency is reported as inconclusive: 10.4 µM [inhibitor, partial curve, poor fit].
With `CCOC(=O)C1CCN(S(=O)(=O)c2ccc(CN3C(=O)c4cccnc4C3=O)cc2)CC1` the Potency was inconclusive: 14.7 µM [inhibitor, single point].
For `Cc1ccc([C@@H]2[C@@H]3C(=O)N(C)C(=O)[C@@H]3[C@]3(C)C(=O)N(Cc4ccccc4)CC(=O)N23)o1`, the Potency was inconclusive: 0.415 µM [inhibitor, partial curve, poor fit].
For `CC(C)(C)OC(=O)N1CCC(c2cc(=O)n3[nH]cc(C(=O)NC4CCCC4)c3n2)CC1`, the Potency was inconclusive: 4.65 µM [inhibitor, partial curve, poor fit].
